PubChem BioAssay AID602196, INSERM | 2012
Shown is an unselected part of about 23,000 reagents. 455 of all reagents (2%) count as active. 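Active includes both protection and sensitisation; some change values fall well beyond the stated -50 to +50 range.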 Unmarked entries are inactive. The numbers tell different reagents against one gene apart. Not all columns of the deposit are shown. Not given: the amount of reagent.

Aim: 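Modifiers of cisplatin sensitivity in A549 cells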
System: human A549 lung cancer cells
Knock-down reagent: siRNA pair against human genes
Time to read-out: 48 h transfection before cisplatin; time from cisplatin to read-out not stated
Conditions: cisplatin at a dose killing half of control-siRNA cells; exact dose and duration not given
Read-out: 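Cisplatin cell death as a shift from the 50% death seen with control siRNA; siRNAs toxic or growth-blocking alone scored 0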
Reading the numbers: two-siRNA summed score (-2 to +2): higher = both siRNAs protect from cisplatin killing; -2 means both sensitise; mean protection from cisplatin (shift in death) and protection from cisplatin (shift in death), siRNA C: higher = protection from cisplatin killing
Active means: 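siRNAs harmful alone (LDH or WST-1) get 0; others get +1 for less and -1 for more cisplatin killing; genes are active when the two siRNAs give the same sign, summing to ±2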
Meaning of the calls: active = both siRNAs shift cisplatin killing the same way; inactive = no consistent shift, or siRNA harmful alone

gene knocked down | reagent no. | two-siRNA summed score (-2 to +2) | mean protection from cisplatin (shift in death) (%) | protection from cisplatin (shift in death), siRNA C (%)
SLC39A5 | 1 | 2 (active) | 31.7 | 37
ENPP3 | 1 | -1 | -0.6 | 12.3
CTDSP1 | 1 | 1 | 6.5 | -4.5
HOXC9 | 1 | 1 | 16.6 | -2.7
PANK4 | 1 | -1 | -0.2 | 9
ASIC4 | 1 | 0 | 6.9 | 8.8
TXNDC9P1 | 1 | -1 | -14 | 1.3
MYL12B | 1 | 1 | 7.8 | -2.1
BNIP3L | 1 | 0 | -0.3 | -0.9
HSH2D | 1 | 0 | 0.7 | 10
NT5DC1 | 1 | 0 | 1.7 | 2.3
LOC400855 | 1 | 0 | 8.5 | 16
KHDRBS2 | 1 | 1 | 9 | 12.1
NDST4 | 1 | 0 | 9.3 | 7.8
SCG3 | 1 | 0 | -1.6 | -7.5
ZNF322 | 1 | 0 | 8.1 | 10.6
TFEB | 1 | -1 | -10.6 | -13.3
ING2 | 1 | 0 | 7.9 | -13.9
UBE2G1 | 1 | 0 | 0.7 | 2.4
POU3F1 | 1 | 1 | 17.3 | 27.7
TRAPPC10 | 1 | -1 | -3.4 | 7
ADGRF3 | 1 | 0 | -1.1 | -12.5
LINC02591 | 1 | 0 | 1.6 | 6.7
HTN3 | 1 | 0 | 5.7 | 16.8
TUBB3 | 1 | -1 | -19.1 | 5.1
SEMA4A | 1 | 0 | -1.2 | 2.6
CLTB | 1 | 0 | 5.2 | 10.8
MAOB | 1 | 0 | -10.9 | -16
TP53TG5 | 1 | 0 | 10.2 | 19.5
DMRTC1 | 1 | 0 | 5.3 | 9.9
PDCL3 | 1 | 0 | 2.5 | -8.6
LOC92270 | 1 | 0 | 4.4 | 12.2

Laid out differently: entries from further up.
| gene knocked down | reagent no. | two-siRNA summed score (-2 to +2) | mean protection from cisplatin (shift in death) (%) | protection from cisplatin (shift in death), siRNA C (%) |
| --- | --- | --- | --- | --- |
| TFEB | 1 | -1 | -10.6 | -13.3 |
| ING2 | 1 | 0 | 7.9 | -13.9 |
| UBE2G1 | 1 | 0 | 0.7 | 2.4 |
| POU3F1 | 1 | 1 | 17.3 | 27.7 |
| TRAPPC10 | 1 | -1 | -3.4 | 7 |
| ADGRF3 | 1 | 0 | -1.1 | -12.5 |
| LINC02591 | 1 | 0 | 1.6 | 6.7 |
| HTN3 | 1 | 0 | 5.7 | 16.8 |

The results go on:
gene knocked down | reagent no. | two-siRNA summed score (-2 to +2) | mean protection from cisplatin (shift in death) (%) | protection from cisplatin (shift in death), siRNA C (%)
LIMS2 | 1 | 0 | 7.1 | 12.8
LOC441518 | 1 | 1 | 14.6 | 9.5
KISS1R | 1 | 0 | 2.7 | -10
ZNF486 | 1 | 1 | 14.9 | 11.2
PIMREG | 1 | -1 | -15.6 | -13
LOC200019 | 1 | 0 | 2.4 | -2.9
LOC390158 | 1 | 0 | 16.7 | 29.7
DBNDD1 | 1 | 0 | 1.7 | 3.7
GTF3C3 | 1 | 0 | 1.8 | 2.9
FLJ45300 | 1 | 0 | -3.1 | 0.1
KRTAP19-4 | 1 | 0 | -0.9 | -7.4
RTRAF | 1 | 0 | -3.4 | -17.2
MGC48637 | 1 | 1 | 21.7 | 3.6
CEP85 | 1 | 0 | 11.4 | 16
NOTCH2 | 1 | 0 | -17.8 | -32.9
DIS3 | 1 | 0 | 9.1 | 14.1
SLC25A45 | 1 | 0 | 3.3 | 13.9
DNAJB13 | 1 | 1 | 5.6 | 10.9
NALCN | 1 | 0 | -5.2 | 8.5
CELSR2 | 1 | 0 | 6.1 | 8.7
RUFY1 | 1 | 0 | -8 | 3.3
EGR1 | 1 | 0 | 9.1 | 8.4
XRN2 | 1 | 0 | 14.2 | 14.9
CFAP74 | 1 | 0 | -5.8 | -13.3
CFAP74 | 2 | 1 | 1 | -15.4
